Residue numbers refer to the chain shown, from its start. These are yes or no findings as the source states them, for the method shown. In cells and extracts the contact can be indirect. Some binding calls cover weakened binding; strength is not graded here. For part of these data: Sequences can lack the tags named with a protein.
Assays:
[1] = target: T1, PP5-FLAG-K97E/R101E-K430R (UniProt P53041); assay: co-IP; anti-FLAG agarose IP of PP5-FLAG (WT or mutants) from lysate of transfected HEK293 cells, 2 h at 4 °C; washes in 20 mM Tris-HCl pH 7.4, 100 mM NaCl, 1 mM MgCl2, 0.1% NP40; endogenous partners by immunoblot; some panels with CK1δ-myc co-expressed or 2 µM IC261 for 16 h
T1 sequence: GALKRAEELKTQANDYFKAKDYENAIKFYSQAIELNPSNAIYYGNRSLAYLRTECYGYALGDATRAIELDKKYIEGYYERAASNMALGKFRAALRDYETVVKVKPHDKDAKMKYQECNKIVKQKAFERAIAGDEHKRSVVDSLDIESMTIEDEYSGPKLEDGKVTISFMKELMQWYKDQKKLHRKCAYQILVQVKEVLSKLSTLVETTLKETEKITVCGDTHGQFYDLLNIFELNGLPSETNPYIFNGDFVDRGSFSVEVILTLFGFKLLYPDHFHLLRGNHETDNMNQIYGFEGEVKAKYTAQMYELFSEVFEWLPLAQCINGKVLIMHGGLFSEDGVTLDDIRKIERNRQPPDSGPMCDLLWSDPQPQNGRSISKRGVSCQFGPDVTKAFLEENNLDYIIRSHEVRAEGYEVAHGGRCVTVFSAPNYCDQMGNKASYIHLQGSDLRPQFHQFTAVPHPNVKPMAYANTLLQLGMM

Chains of the proteins cited; added tags and fusions are not shown.
UniProt P04150: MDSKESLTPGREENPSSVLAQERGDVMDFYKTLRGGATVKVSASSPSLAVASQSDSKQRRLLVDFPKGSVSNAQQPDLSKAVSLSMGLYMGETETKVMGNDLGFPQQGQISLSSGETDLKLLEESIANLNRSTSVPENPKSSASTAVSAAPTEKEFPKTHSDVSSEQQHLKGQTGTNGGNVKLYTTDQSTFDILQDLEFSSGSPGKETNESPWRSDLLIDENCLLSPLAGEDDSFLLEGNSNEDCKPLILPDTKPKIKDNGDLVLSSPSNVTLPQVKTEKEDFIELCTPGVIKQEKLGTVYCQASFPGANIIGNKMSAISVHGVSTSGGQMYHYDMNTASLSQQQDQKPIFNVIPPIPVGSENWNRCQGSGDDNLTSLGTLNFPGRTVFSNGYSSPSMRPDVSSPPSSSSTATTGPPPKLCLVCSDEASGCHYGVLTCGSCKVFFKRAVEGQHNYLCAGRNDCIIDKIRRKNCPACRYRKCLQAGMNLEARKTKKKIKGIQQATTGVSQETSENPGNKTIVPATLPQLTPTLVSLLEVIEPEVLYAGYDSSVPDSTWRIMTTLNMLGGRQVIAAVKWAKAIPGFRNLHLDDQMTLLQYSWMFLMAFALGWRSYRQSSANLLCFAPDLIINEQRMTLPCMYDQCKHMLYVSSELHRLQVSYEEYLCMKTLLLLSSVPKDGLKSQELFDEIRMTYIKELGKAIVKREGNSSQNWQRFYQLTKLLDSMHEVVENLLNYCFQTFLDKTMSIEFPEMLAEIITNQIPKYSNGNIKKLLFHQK

[2] = target: T2, serine/threonine protein phosphatase 5 (PP5), wild-type PP5-FLAG (UniProt P53041); assay: as above
T2 sequence: T1 sequence with E75K, E79R, R408K

[3] = target: SUMO-1-PP5: PP5-FLAG SUMOylated in cells with SUMO-1-HA (UniProt P53041); assay: co-IP; HEK293 cells co-transfected with PP5-FLAG WT and SUMO-1-HA; FLAG IP (IP:1, SUMOylated and non-SUMOylated PP5), then HA IP (IP:2, only SUMOylated PP5); Hsp90 and GR by immunoblot

binding [1]: no binding
binding [2]: binds
binding [3]: no binding
Substance: glucocorticoid receptor (GR), endogenous (from UniProt P04150 1-777)
